Test results published in the supplement of paper PMC6411743.
± gives the standard deviation of the averaged measurements. The list shows a part of the results, in another mix than the full data. Small differences around the control level are noise.

Sequences of proteins named here, by UniProt entry; tags and fusion partners are left off. A change or cut given only in a name is not applied to a line headed by its entry.
UniProt Q96AB3: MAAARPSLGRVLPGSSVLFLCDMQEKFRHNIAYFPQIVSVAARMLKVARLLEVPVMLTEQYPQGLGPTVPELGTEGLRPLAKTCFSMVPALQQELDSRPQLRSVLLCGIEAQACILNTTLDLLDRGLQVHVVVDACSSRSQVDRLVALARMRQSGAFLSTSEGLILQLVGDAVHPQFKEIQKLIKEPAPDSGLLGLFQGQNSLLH
UniProt O43709: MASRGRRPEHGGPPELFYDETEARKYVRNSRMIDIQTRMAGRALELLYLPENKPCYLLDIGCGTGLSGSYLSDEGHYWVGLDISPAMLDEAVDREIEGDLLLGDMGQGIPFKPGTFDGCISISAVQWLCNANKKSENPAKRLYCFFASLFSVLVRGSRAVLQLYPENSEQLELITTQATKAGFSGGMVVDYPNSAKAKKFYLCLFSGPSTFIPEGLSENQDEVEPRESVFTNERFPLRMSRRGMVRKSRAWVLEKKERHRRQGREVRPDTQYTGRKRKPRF
UniProt O15446, whole entry: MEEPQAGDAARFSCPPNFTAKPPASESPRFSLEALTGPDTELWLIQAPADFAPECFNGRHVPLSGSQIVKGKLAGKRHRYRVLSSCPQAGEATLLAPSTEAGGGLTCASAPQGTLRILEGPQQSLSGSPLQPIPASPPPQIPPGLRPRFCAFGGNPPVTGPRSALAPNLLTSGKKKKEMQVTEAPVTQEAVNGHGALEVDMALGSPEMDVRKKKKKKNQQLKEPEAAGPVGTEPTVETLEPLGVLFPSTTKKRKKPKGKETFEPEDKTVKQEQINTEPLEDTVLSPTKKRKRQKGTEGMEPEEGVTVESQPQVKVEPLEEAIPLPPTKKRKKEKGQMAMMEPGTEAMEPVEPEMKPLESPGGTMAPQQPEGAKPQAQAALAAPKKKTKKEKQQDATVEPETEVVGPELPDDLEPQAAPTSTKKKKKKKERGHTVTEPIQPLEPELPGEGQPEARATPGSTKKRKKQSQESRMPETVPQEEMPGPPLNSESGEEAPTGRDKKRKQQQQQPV
UniProt O14933: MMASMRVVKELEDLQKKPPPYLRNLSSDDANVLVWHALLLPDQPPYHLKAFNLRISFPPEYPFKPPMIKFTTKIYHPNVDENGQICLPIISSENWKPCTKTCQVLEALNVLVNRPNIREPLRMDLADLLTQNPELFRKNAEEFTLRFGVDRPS
UniProt P52272: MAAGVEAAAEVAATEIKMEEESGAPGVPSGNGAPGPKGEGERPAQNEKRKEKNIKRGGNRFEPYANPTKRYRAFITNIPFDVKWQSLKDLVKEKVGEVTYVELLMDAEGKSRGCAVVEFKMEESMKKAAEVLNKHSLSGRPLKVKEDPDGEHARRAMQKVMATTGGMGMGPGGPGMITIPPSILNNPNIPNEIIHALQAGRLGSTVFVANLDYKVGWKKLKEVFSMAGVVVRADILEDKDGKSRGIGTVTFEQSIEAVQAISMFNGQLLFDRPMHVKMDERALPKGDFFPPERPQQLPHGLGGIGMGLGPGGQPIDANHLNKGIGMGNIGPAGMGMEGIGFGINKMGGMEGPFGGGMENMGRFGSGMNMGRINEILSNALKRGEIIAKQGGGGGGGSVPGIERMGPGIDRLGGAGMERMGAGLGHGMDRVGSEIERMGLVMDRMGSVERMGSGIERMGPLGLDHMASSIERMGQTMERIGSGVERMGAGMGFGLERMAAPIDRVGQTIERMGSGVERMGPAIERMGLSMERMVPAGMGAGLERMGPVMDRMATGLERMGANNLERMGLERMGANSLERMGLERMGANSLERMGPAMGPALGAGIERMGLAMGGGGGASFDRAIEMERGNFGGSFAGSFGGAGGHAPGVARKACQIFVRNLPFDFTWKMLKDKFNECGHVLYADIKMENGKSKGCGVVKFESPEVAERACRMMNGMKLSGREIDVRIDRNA
UniProt O43823: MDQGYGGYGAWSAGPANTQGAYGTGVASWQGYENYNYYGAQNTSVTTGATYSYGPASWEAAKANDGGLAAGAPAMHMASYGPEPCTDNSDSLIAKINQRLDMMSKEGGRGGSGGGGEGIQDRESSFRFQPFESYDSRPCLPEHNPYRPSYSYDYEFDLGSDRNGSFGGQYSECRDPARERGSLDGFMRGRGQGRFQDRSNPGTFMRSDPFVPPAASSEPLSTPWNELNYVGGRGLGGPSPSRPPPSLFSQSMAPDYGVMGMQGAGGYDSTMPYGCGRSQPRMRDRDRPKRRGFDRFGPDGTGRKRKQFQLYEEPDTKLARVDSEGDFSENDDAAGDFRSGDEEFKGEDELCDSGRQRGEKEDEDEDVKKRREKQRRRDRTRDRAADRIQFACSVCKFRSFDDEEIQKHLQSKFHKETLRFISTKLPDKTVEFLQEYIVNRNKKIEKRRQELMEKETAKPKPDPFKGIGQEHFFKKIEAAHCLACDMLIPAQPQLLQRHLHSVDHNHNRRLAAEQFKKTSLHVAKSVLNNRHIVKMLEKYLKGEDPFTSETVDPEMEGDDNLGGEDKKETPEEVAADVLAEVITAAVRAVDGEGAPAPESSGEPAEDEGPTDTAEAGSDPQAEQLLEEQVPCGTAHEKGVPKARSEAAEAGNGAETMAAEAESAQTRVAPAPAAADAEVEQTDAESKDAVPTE
UniProt O15294: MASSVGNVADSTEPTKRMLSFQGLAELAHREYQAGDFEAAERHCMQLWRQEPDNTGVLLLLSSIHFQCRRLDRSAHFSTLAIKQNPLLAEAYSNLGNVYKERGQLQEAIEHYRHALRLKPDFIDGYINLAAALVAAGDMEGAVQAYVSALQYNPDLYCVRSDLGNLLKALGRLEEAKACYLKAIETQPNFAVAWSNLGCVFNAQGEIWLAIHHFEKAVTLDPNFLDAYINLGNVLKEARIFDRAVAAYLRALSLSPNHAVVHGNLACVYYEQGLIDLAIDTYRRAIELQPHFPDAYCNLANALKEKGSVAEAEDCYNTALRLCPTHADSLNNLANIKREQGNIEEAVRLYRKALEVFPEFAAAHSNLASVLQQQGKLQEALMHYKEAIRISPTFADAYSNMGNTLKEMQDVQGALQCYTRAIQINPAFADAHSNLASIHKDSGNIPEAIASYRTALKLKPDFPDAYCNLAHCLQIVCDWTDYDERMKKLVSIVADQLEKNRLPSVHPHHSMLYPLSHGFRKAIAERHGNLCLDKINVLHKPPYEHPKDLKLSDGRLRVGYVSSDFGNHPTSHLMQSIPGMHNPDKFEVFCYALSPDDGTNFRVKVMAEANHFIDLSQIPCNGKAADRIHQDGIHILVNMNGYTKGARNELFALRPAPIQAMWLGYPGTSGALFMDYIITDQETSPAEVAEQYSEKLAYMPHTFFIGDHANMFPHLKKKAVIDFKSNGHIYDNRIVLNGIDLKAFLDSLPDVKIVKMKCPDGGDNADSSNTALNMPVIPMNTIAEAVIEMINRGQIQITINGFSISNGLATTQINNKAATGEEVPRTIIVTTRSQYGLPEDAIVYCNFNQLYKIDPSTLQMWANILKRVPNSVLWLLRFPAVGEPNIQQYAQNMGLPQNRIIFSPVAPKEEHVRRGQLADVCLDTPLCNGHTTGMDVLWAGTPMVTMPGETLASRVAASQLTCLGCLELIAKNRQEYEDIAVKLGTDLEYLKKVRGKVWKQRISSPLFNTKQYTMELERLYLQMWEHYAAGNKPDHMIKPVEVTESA
UniProt O75264: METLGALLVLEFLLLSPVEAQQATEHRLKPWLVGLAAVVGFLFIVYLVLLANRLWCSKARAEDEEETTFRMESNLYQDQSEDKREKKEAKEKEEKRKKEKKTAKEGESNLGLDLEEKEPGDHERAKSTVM
UniProt O15037: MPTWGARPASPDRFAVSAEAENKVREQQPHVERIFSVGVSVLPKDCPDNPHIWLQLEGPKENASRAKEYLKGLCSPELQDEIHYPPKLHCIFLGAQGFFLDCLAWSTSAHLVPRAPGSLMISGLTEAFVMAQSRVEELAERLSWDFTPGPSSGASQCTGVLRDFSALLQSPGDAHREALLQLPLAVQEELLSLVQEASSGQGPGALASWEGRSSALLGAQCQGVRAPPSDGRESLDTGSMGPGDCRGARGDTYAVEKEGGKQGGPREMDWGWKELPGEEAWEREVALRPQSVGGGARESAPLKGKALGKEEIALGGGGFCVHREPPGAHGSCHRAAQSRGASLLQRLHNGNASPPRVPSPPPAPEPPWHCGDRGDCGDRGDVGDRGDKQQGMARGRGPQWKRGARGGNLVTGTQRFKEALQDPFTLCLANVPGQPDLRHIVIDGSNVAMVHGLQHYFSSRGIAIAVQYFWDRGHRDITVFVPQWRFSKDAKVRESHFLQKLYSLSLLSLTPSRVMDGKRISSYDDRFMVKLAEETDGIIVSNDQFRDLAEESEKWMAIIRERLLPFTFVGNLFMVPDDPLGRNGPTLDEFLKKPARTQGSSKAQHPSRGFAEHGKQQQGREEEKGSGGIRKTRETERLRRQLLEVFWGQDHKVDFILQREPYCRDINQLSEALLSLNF
UniProt O15258: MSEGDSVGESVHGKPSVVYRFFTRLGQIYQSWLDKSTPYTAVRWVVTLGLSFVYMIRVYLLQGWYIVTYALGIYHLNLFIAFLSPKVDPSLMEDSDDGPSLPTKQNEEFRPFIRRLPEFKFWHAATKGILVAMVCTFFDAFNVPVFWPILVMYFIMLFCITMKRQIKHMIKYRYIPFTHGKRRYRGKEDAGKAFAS
UniProt O00410: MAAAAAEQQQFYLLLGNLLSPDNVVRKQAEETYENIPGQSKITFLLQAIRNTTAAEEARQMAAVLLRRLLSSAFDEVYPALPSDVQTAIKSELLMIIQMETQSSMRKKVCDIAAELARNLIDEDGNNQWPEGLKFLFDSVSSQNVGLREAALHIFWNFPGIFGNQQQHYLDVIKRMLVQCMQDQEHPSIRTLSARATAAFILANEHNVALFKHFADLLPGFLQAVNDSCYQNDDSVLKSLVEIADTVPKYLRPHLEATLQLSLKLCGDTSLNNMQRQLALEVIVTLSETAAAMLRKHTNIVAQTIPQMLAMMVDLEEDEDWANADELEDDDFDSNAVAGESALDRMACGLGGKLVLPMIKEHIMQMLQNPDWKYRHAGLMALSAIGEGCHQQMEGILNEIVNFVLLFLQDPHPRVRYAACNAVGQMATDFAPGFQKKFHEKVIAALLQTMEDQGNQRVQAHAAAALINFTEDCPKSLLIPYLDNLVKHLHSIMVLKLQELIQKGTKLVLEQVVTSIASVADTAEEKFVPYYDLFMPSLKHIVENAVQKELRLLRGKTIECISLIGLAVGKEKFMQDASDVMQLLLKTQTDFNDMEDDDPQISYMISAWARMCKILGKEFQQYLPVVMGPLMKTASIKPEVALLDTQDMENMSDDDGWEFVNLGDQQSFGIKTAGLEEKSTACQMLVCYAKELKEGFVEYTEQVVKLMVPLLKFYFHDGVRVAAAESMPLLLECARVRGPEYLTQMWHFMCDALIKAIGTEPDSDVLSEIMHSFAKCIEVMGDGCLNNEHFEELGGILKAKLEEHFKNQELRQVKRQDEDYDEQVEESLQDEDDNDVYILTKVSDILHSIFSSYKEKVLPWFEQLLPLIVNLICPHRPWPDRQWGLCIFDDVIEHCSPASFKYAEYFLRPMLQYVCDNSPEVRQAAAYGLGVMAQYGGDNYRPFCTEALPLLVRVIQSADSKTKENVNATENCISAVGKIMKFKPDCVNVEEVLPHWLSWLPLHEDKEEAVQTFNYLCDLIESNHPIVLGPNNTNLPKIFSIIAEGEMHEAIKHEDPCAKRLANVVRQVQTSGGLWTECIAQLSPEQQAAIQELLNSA
UniProt O00399, whole entry: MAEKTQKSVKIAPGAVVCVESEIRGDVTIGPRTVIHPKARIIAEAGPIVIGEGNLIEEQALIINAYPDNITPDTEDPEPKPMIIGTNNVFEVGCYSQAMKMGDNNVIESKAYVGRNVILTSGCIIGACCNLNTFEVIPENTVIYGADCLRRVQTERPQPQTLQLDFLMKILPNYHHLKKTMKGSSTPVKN
UniProt O00409: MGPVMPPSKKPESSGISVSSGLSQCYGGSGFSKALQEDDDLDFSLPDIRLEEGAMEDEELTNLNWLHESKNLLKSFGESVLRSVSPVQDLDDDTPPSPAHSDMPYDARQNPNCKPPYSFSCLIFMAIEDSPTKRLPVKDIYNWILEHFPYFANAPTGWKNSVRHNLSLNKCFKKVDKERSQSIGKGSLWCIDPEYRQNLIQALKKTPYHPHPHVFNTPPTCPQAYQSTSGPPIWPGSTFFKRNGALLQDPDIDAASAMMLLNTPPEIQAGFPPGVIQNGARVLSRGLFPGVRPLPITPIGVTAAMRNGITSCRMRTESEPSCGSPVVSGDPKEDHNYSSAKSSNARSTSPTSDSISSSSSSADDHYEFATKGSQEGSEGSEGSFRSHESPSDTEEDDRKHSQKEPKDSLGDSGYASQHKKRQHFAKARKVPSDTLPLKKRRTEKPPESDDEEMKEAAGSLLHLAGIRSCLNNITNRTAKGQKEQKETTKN
UniProt O00422: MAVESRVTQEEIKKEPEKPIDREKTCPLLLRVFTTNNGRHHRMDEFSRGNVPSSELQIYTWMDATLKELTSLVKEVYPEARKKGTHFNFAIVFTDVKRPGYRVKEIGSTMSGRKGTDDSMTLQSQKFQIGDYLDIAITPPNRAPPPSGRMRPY

Compound: Nc1ncnc2c1ncn2[C@@H]1O[C@H](COP(=O)(O)OP(=O)(O)NP(=O)(O)O)[C@@H](O)[C@H]1O [adenylyl imidodiphosphate]
Experiment: NP40-soluble protein abundance relative to vehicle (solubility fold change) (ratio); higher = more soluble protein in presence of AMP-PNP
Method in brief: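 In three independent experiments, Jurkat crude lysate made by Dounce homogenisation was treated for 10 min at room temperature and then 3 min at 37 °C with eight concentrations ranging from 0.1 to 10 mM. It was then solubilised with 0.8% NP40 plus benzonase for 60 min at 4 °C and ultracentrifuged. The supernatant was TMT-labelled for LC-MS/MS, and each value is the fold change against the detergent-processed vehicle for the same replicate, using vsn-normalised intensities.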

Target	NP40-soluble protein abundance (concentration: 0.1mM)	NP40-soluble protein abundance (concentration: 0.5mM)
KIF1C (UniProt O43896)	0.9502 ± 0.0027	0.98262 ± 0.00026
UniProt O15117 and related entries	1.02 ± 0.071	1.05 ± 0.12
K7EKW4 and related entries (UniProt Q96AB3)	1.03 ± 0.042	1.03 ± 0.036
UniProt O43709 and related entries	1.06 ± 0.021	1.004 ± 0.01
ZBTB43 (UniProt O43298)	1.01 ± 0.067	0.98 ± 0.019
UniProt O15446 and related entries	1.02 ± 0.058	1.007 ± 0.0055
SYNJ2 (UniProt O15056)	0.9582 ± 0.0082	0.955 ± 0.011
CLGN (UniProt O14967)	0.997 ± 0.039	1.02 ± 0.043
ADAM10 (UniProt O14672)	0.967 ± 0.031	0.973 ± 0.03
UBE2L6 (UniProt O14933)	0.992 ± 0.036	1.07 ± 0.048
POLRMT (UniProt O00411)	1 ± 0.067	0.967 ± 0.02
UniProt O43903	1.02 ± 0.015	1.04 ± 0.045
M0QZM1 and related entries (UniProt P52272)	1.01 ± 0.037	1 ± 0.039
UniProt O14639 and related entries	1 ± 0.012	0.96 ± 0.07
RNF13 (UniProt O43567)	0.976 ± 0.053	0.975 ± 0.056
BCAT2 (UniProt O15382)	1.03 ± 0.043	1.03 ± 0.13
RRP9 (UniProt O43818)	0.992 ± 0.018	0.998 ± 0.034
AKAP8 (UniProt O43823)	0.989 ± 0.029	1.01 ± 0.041
K7EMK7 and related entries (UniProt Q04725)	0.988 ± 0.019	1.0146 ± 0.00093

Some of the entries above, reformatted.
Target,NP40-soluble protein abundance (concentration: 0.1mM),NP40-soluble protein abundance (concentration: 0.5mM)
UniProt O15446 and related entries,1.02 ± 0.058,1.007 ± 0.0055
SYNJ2 (UniProt O15056),0.9582 ± 0.0082,0.955 ± 0.011
CLGN (UniProt O14967),0.997 ± 0.039,1.02 ± 0.043
ADAM10 (UniProt O14672),0.967 ± 0.031,0.973 ± 0.03
UBE2L6 (UniProt O14933),0.992 ± 0.036,1.07 ± 0.048

The list continues.

Target	NP40-soluble protein abundance (concentration: 0.1mM)	NP40-soluble protein abundance (concentration: 0.5mM)
UniProt O15530 and related entries	0.957 ± 0.074	0.975 ± 0.063
UniProt O15379 and related entries	0.986 ± 0.036	1 ± 0.028
DHX15 (UniProt O43143)	1.07 ± 0.017	1.08 ± 0.059
OGT (UniProt O15294)	0.9991 ± 0.0039	0.982 ± 0.019
K7EKM7 (UniProt O75264)	1.01 ± 0.018	1.05 ± 0.031
B4GAT1 (UniProt O43505)	0.992 ± 0.047	0.993 ± 0.014
DYNC1LI2 (UniProt O43237)	1.01 ± 0.036	1.01 ± 0.059
HAT1 (UniProt O14929)	1.05 ± 0.048	1 ± 0.075
K7EJL1 and related entries (UniProt Q9BXS5)	1.01 ± 0.013	0.972 ± 0.087
UniProt O15037	0.995 ± 0.045	0.975 ± 0.011
PPIH (UniProt O43447)	0.992 ± 0.031	0.97 ± 0.058
HTATSF1 (UniProt O43719)	0.986 ± 0.046	1.02 ± 0.056
K7EJ91 and related entries (UniProt Q8N0Y2)	1.019 ± 0.0013	1.02 ± 0.033
UniProt O15014 and related entries	0.997 ± 0.083	1 ± 0.049
K7ERF1 and related entries (UniProt Q9UBQ5)	0.999 ± 0.022	1.013 ± 0.0081
UniProt O00330 and related entries	1.07 ± 0.14	1.01 ± 0.12
UniProt O15258 and related entries	1.03 ± 0.042	1.06 ± 0.04
UniProt O43665 and related entries	0.963 ± 0.042	1.01 ± 0.043
UniProt O00410 and related entries	0.979 ± 0.018	0.999 ± 0.036

Target	NP40-soluble protein abundance (concentration: 0.1mM)	NP40-soluble protein abundance (concentration: 0.5mM)
UniProt O43683 and related entries	0.9756 ± 0.0068	0.951 ± 0.02
PSMD11 (UniProt O00231)	0.987 ± 0.017	0.929 ± 0.044
K7EK33 and related entries (UniProt Q96EP5)	0.991 ± 0.018	1.03 ± 0.057
DCTN6 (UniProt O00399)	1 ± 0.086	1.01 ± 0.032
SLC25A20 (UniProt O43772)	1.02 ± 0.025	1 ± 0.017
K7ERW4 and related entries (UniProt Q6AI12)	0.988 ± 0.014	0.977 ± 0.044
EEF2K (UniProt O00418)	0.991 ± 0.032	0.9763 ± 0.0054
UniProt O00743 and related entries	1.042 ± 0.0029	0.992 ± 0.072
UBFD1 (UniProt O14562)	0.954 ± 0.043	0.996 ± 0.065
UniProt O15020 and related entries	0.994 ± 0.014	1.008 ± 0.004
M0QX46 and related entries (UniProt Q6UUV9)	0.9758 ± 0.0022	0.987 ± 0.019
COPE (UniProt O14579)	1.04 ± 0.071	1.07 ± 0.087
UniProt O00409 and related entries	0.986 ± 0.018	1.023 ± 0.0091
SLC33A1 (UniProt O00400)	1 ± 0.052	1.02 ± 0.051
UniProt O43251-6|O43251-8	0.999 ± 0.0073	0.994 ± 0.034
UniProt O00422 and related entries	1.07 ± 0.086	1.05 ± 0.06
UniProt O43663 and related entries	1.04 ± 0.033	1.01 ± 0.016
UniProt O43296	0.981 ± 0.032	1.009 ± 0.0093
